# PubChem BioAssay AID1259281 – Sanger Institute – 2017
# Screen: 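Screen kinases and frequently colorectal-mutated genes for lethal knock-downs and drug partners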 (primary screen)
# Cells: human COLO678 colorectal cancer cell line
# Reagents: siRNA pool against human genes
# Conditions: anchor drugs at fixed doses: BYL719 1 µM, cetuximab 5 µg/ml or trametinib 10 nM; DMSO vehicle for the siRNA-alone arm
# Read-out: 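Surviving cells scaled to non-targeting siRNA control as replicate means; robust z-score for knock-down alone; synergy scores weigh knock-down with drug against the predicted combined effect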
# Scale: robust z-score, siRNA alone: higher = more viable cells; strongly negative means essential; viability, siRNA alone: higher = more surviving cells; synergy score with BYL719: higher = stronger synergistic killing with drug
# Active means: 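Essential (knock-down alone) when the siRNA-alone robust z-score is below -3; otherwise no change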
# Meaning of the calls: active = essential (knock-down alone); inactive = no change
# This is an unselected part of 794 deposited reagents. Of all reagents, 22 (2.8%) got an active call. 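Calls rest on knock-down alone only; drug synergy scores play no part in them.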 A number with no mark means an inactive call. Viability is capped at 1. Further read-outs or replicates are left out here. Not stated in the record: the amount of reagent, the time to read-out.
The opening 7 records, ahead of the listing:
gene knocked down,"robust z-score, siRNA alone","viability, siRNA alone (fraction of control)",synergy score with BYL719
RPS6KA2,-3.85 (active),0.863,-0.00725
TESK2,0.473,1,0.0308
TTBK2,-3.36 (active),0.878,-0.145
PCK1,-0.301,0.975,0.00762
DGKQ,0.473,1,-0.0919
AURKB,0.116,0.989,0.0373
PTK7,0.473,1,-0.0788

The listing, from the first entry:
gene knocked down,"robust z-score, siRNA alone","viability, siRNA alone (fraction of control)",synergy score with BYL719
RPS6KA2,-3.85 (active),0.863,-0.00725
TESK2,0.473,1,0.0308
TTBK2,-3.36 (active),0.878,-0.145
PCK1,-0.301,0.975,0.00762
DGKQ,0.473,1,-0.0919
AURKB,0.116,0.989,0.0373
PTK7,0.473,1,-0.0788
AK5,0.473,1,0.0329
MAPK10,0.473,1,0.0108
TLK2,0.473,1,-0.0919
DNMT3A,0.473,1,-0.0919
DGKH,0.473,1,-0.008
PRKAR2A,0.473,1,0.0131
PGK2,-1.14,0.949,-0.121
PIM2,0.473,1,-0.0919
CAMK2B,0.473,1,-0.0919
SRMS,-1.34,0.942,-0.144
CAMK2A,-0.612,0.966,-0.123
CDADC1,0.473,1,0.0219
AURKC,0.271,0.994,0.0529
DCLK1,-0.424,0.971,0.0445
WNK4,0.473,1,-0.0919
TWF2,0.473,1,-0.0919
FRK,0.0496,0.987,-0.0449
CDKN1B,0.202,0.991,0.0332
ITPKA,0.473,1,-0.0919
MAPK9,0.473,1,-0.0919
CHD4,0.473,1,0.151
DGUOK,-0.714,0.962,0.0938
FGFRL1,0.473,1,-0.0869
PRKG1,0.473,1,-0.07
RIOK2,0.166,0.99,0.0348
FLT1,0.473,1,0.0448
NADK,0.473,1,0.0467
PIK3R4,0.473,1,0.119
CIT,-0.945,0.955,-0.0568
MAP3K1,0.473,1,-0.0919
UCKL1,0.116,0.989,0.0226
IRAK2,0.0862,0.988,0.0136
BRD2,0.473,1,-0.0919
PI4KB,0.473,1,-0.00579
CSNK2B,0.473,1,0.0464
PHKA1,0.473,1,0.0935
ELP1,0.473,1,-0.0522
CHUK,0.473,1,-0.0919
PRPS1L1,-1.82,0.927,-0.113
CAMKV,0.473,1,-0.0294
PAK3,-2.77,0.897,0.0454
PFKFB4,0.209,0.992,-0.0995
HASPIN,-1.44,0.939,0.0276
ERN2,0.234,0.992,-0.0378
MAGI1,0.473,1,-0.0919
PRKCZ,0.473,1,0.0127
MAPK1,-1.26,0.945,0.138
MAPKAPK2,0.473,1,0.0302
RIPK3,-0.29,0.976,-0.114
JAK3,0.473,1,-0.00473
SRPK3,0.473,1,-0.0919
PRPS2,0.473,1,-0.0171
MAP4K3,-1.18,0.947,-0.14
MAP2K4,0.473,1,-0.0674
DLG4,-0.153,0.98,-0.0334
STK11,0.405,0.998,-0.0302
